According to paper PMC13156308:
No constants are given. Whether binding was seen depends on the method and setting. In cells and extracts the contact can be indirect. These calls come from enrichment with a bait or labelling near it, and not all partners need be listed.

The chains behind the UniProt entries cited, without tags or fusion partners. Where a name states a change or a piece, a line headed by the entry shows the natural chain unless it says otherwise. A line that says so, or that is headed by a name, gives the form on record, which may keep a tag or linker.
UniProt P97310: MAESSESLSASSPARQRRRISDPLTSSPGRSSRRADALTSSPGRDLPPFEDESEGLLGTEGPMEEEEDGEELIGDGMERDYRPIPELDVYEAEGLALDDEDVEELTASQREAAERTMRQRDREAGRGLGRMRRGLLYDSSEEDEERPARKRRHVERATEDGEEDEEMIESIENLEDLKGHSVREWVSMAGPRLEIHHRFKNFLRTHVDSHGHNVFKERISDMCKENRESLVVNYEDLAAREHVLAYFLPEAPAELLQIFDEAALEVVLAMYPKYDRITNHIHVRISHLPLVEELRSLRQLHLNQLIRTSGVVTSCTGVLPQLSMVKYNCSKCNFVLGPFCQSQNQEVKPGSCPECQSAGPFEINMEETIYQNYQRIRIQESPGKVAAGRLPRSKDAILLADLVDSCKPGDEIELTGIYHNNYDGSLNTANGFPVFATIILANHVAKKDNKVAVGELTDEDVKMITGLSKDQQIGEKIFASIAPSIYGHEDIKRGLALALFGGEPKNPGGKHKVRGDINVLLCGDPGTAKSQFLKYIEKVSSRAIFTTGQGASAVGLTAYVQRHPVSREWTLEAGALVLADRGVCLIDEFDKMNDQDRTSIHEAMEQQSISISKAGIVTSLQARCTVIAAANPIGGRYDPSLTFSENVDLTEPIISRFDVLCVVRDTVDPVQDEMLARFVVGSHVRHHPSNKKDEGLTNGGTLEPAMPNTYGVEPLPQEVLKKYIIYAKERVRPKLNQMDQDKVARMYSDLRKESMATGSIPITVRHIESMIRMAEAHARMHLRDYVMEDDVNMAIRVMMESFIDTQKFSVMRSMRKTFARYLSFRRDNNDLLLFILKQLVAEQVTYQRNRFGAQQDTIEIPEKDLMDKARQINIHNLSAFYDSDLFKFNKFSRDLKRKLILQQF
MCM2-2A-TurboID-3xHA (mouse) (P97310, form named): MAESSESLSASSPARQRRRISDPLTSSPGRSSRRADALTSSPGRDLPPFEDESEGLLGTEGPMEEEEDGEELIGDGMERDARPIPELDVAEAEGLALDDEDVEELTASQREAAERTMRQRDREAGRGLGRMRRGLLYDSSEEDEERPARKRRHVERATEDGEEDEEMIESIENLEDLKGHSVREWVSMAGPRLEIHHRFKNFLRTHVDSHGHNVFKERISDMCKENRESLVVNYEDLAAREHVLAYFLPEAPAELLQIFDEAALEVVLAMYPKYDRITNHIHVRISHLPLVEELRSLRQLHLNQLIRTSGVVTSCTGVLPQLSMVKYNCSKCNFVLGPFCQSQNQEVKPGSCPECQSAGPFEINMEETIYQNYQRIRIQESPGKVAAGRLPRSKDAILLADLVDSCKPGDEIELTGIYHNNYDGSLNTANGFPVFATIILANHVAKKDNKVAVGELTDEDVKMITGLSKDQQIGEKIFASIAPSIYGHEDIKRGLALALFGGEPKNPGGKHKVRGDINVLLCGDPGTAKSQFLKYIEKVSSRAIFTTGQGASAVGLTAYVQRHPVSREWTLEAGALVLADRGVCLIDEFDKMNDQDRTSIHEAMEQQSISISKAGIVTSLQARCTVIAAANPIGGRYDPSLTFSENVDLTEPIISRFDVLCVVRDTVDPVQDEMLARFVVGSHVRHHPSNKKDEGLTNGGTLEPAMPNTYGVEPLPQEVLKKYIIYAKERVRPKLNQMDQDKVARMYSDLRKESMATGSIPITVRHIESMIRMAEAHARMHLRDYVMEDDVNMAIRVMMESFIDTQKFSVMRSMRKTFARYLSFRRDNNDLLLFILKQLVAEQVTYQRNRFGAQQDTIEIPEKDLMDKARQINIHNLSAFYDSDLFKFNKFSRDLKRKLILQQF

T1: POLE4-TurboID (mouse) (UniProt Q9CQ36)
T1 sequence: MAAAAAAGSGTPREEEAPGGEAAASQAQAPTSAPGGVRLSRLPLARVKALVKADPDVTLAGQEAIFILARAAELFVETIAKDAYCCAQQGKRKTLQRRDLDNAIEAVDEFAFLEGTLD

T2: POLE3-TurboID (mouse) (UniProt Q9JKP7)
T2 sequence: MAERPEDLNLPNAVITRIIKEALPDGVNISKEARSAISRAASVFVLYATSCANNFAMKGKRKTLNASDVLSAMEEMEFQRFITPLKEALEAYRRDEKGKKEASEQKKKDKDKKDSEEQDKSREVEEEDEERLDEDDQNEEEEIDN


What was measured:
Assay in all cases: proximity labelling; bait-TurboID stably expressed in S-phase-synchronised NIH3T3 cells, 500 uM biotin 1 h, RIPA lysis, streptavidin beads, LC-MS/MS, four replicates; enriched: bait/Control >2, P <0.05
[1] = target: MCM2-2A-TurboID-3xHA (mouse) (mouse) (UniProt P97310)
[2] = target: MCM2-TurboID-3xHA (mouse) (mouse) (UniProt P97310)
POLE4-TurboID (mouse) = target: T1, POLE4-TurboID (mouse)
POLE3-TurboID (mouse) = target: T2, POLE3-TurboID (mouse)

binding [1] | binding [2] | binding (POLE4-TurboID (mouse)) | binding (POLE3-TurboID (mouse)) | Binder
binds | binds | – | – | CHRAC1 (protein, UniProt Q9JKP8 1-129) MADAAVGKEKCGDQRLVSLPLSRIRVIMKSSPEVSSINQEALVLTAKATELFVQYLATCSYRHGSGKAKKALTYSDLASTAEDSETLQFLADILPKKILASKYLKMLKEKREEEEDNEDDGSDLGEALA
binds | binds | binds | binds | DNAJC9 (protein, UniProt Q91WN1 1-259) MGLLELCEQVFGTADLYQVLGVRREASDGEVRRGYHKVSLQVHPDRVEEDQKEDATRRFQILGRVYAVLSDKEQKAVYDEQGTVDEDSAGLNQDRDWDAYWRLLFKKISLEDIQAFEKTYKGSEEELNDIKQAYLDFKGDMDQIMESVLCVQYTDEPRIRNIIQKAIESKEIPAYSAFVKESKQKMNARKRRAQEEAKEAELSRKELGLEEGVDNLKALIQSRQKDRQKEMDSFLAQMEAKYCKPSKGGKRTALKKEKK
binds | binds | – | – | WD repeat and HMG-box DNA-binding protein 1 (WDHD1) (protein, UniProt P59328 1-1117) MPATQKPMRYGHTEGHTEVCFDDSGSYIVTCGSDGDVRMWEDLDDDDPKSVNVGEKAFSCALKNGKLVTAVSNNTVQVYTFPEGVPDGILTRFTTNANHVVFNGAGNKIAAGSSDFLVKVVDVMDNSQQQTFRGHDAPVLSLSFDPKDIFLASASCDGTVRVWNISDQTCAVSWPVLQKSNDVVNAKSICRLAWQPKAGKLLAVPVEKSVKLYRRETWSNPFDLSDSSISQTLNIVTWSPCGQYLAAGAINGLIVVWNVETKDCMERVKHEKGYAICGLAWHPTCSRICYTDVEGNLGVLENVCDLSGKVSSNKVSSRVEKDYNDLFDGDDTSSAGDFLNDNAVEIPSFSKGIINEDDDNDDIMLAADHDLGDDENSVDVTMLKADLSHKEEGDDDQARSIHNLPLIRPQRPFYDGPMPTPRQKPFQSSSTPLHLSHRFMVWNSVGIIRCYNDDQDSAIDVEFHDTSIHHATHLLNAFNYTMGTLSHEAILLACESADELASKLHCLHFSSWDSSKEWMVDMPQNEDIEAICLGLGWAAAATTALLLRLFTIGGVQKEVFCLPGPVVSMAGHGEQLCIVYHRGTGFDGDQCLGVQLLELGRKKNQVLHGDPLPLTRKSYLTWLGFSAEGTPCYVDSEGCVRMLNRGLGNTWTPVCNIREHCKGKSDHYWVVGIHENPQQLRCIPCKGSRFPPTLPRPAVAILSFKLPYCQTSTEKGQMEEQFWHSVLFHNYLDYLAKNGYDYEESIKNQAVKEQQELLMKMLALSCKLEREFRCVELADLMTQNAVHLAIKYASRSRKLILAQKLSELAAEKAAELAETQSEEEKEEDFREKLNAGYSHTTTEWSRPRVRSQVEDAEDREDTVSEEKPESHNHGQNLFQSANSSDTPALKSGAVFSSSQGWVNPFKVVVSSKEPAVSANSTRSANILDSMNKSSRKSTSLNRMENNEKSPVIKPLTPKPRSKQASAASYFQKRTPQADKTEEVKENPKSSSSDAPAVCLQNSENQRPKTGFQMWLEENRSQILSDNPDISDETDIIKEGMIRFRVLSAEERKAWTNKAKGETASDGAEAKKRKRVVSEICETENQEETVKENLDLSKKQKALNLPANQKLSAFAFKQ
